Data published in paper PMC10571979.

Columns and labels:
[1] = target: T1, HA-DVL1-WT (human full-length DVL1) (human) (UniProt O14640); experiment: co-IP; competition: HEK-293 co-transfected with FLAG-CLDN5, HA-DVL1-WT and increasing doses of HA-DVL1-CT plasmid; IP with FLAG antibody, blot for HA; 2% NP-40 buffer
T1 sequence: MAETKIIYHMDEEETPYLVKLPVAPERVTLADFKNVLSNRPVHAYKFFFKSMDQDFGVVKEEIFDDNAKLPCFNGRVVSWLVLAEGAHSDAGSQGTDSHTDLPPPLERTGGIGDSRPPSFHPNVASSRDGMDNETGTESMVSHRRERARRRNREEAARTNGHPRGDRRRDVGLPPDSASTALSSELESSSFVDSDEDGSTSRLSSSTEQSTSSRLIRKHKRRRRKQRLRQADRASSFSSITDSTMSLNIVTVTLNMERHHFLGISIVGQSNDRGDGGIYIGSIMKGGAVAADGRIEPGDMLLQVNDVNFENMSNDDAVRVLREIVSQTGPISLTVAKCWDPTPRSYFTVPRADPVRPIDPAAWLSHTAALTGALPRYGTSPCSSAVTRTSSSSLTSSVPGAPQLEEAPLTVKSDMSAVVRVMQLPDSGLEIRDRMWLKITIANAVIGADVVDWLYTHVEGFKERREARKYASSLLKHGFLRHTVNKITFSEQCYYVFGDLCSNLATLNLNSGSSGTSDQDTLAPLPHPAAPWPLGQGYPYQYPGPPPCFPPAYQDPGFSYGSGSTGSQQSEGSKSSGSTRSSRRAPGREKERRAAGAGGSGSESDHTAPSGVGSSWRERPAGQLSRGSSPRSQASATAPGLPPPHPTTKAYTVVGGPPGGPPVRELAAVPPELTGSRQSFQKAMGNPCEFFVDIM

[2] = target: T2, FLAG-CLDN5 (FLAG-tagged human full-length CLDN5) (human) (UniProt O00501); experiment: co-IP; HEK-293 co-transfected with FLAG-CLDN5 or FLAG-CLDN5-ΔPDZBM and HA-DVL1 or HA-DVL1-ΔC7; IP with FLAG antibody, blot for FLAG, HA or endogenous ZO-1; 2% NP-40 buffer
T2 sequence: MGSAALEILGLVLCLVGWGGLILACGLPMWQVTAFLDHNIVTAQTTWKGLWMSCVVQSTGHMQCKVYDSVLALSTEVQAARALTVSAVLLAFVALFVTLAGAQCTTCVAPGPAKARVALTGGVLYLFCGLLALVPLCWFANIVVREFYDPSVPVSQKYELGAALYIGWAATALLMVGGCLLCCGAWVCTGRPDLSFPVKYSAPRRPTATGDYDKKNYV

[3] = target: FLAG-CLDN5-ΔPDZBM (CLDN5 lacking the last four amino acids) (human); experiment: as above

binding [1]: binds
Molecule: HA-DVL1-CT (last 169 amino acids of the C-terminus of DVL1) (human) (domain or fragment)

binding [2]: binds
Molecule: HA-DVL1-ΔC7 (DVL1 lacking the 7 C-terminal amino acids, PDZ-BM) (human) (domain or fragment)

binding [3]: binds
B1: HA-DVL1-WT (human full-length DVL1) (protein, UniProt O14640 1-695)
chain: T1 sequence

No constants are given. Whether binding was seen depends on the method and setting. In cells and extracts the contact can be indirect. Binding can be weak; no strength is given. Where a sequence is shown, tags or fusion partners need not be part of it. One block for each molecule: values may come before it.
